In PubChem BioAssay AID504444 (National Center for Advancing Translational Sciences (NCATS), 2011):
Hit rate of the full screen: of about 360,000 compounds, about 7,500 (2.1%) were called active. The inconclusive results got no clear call from the source; some entries with a clear call stand among them for comparison. Calls follow the shape of the dose curve; as a rule, active = well fitted inhibition curve with a large enough effect; inconclusive = small, poorly fitted or top-dose-only effect, or effect the other way; inactive = flat fitted curve, though single readings scatter. Potencies beside an inconclusive call are fits to weak or partial responses and may not hold up.

Assay: Nrf2 qHTS screen for inhibitors; also: nearly all actives have a fitted effect of over 60% in size
Conditions: A549 ARE-Fluc reporter, luciferase luminescence, 18-24 h; activity change, negative = inhibition: at 46 µM (top of the series)
In short: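 Nrf2 function is reported as luminescence of an ARE-controlled luciferase in A549 cells. Compounds were tested at several concentrations, and a CellTiter-Fluor read on the same wells flagged cytotoxicity.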
% is scaled to controls: 0 for no effect and ±100 for the full control effect; potency is read from the fitted curve at half-maximal effect.

Question: Which Potency does the source give for O=C(/C=C/c1ccc2c(c1)OCO2)Nc1ccc(Cl)cn1 here?
Answer: inconclusive: 0.82 µM [activator, partial curve]

Question: Which Potency does the source give for CC1(C)CC(c2nc(-c3ccc([N+](=O)[O-])cc3)cs2)CCO1 (configuration not stated) here?
Answer: inconclusive: 29.1 µM [falling, single point]

Question: Which Potency does the source give for CCc1ccc(CCOc2ccc(CC3SC(=O)NC3=O)cc2)nc1 (configuration not stated) here?
Answer: inconclusive: 9.2 µM [falling, partial curve]

Question: For CC(C)Sc1nc2c(cnn2-c2ccc(Cl)cc2)c(=O)[nH]1, which Potency is on record?
Answer: inconclusive: 29.1 µM [falling, partial curve, poor fit]

Question: For COc1ccc(-c2cnc(N)nc2-c2ccc(OCc3ccccc3)cc2O)cc1, which Potency is on record?
Answer: inconclusive: 25.9 µM [falling, single point]

Question: With Cc1cc(F)ccc1NCC(=O)Nc1ccc(Br)cc1C as the compound, how does the Potency read?
Answer: inconclusive: 6.51 µM [falling, single point]

Question: For CC1CCc2[nH]c3ccc(C(=O)N4CCCC(C(F)(F)F)C4)cc3c2C1 (configuration not stated), which Potency is on record?
Answer: inconclusive: 7.31 µM [activator, partial curve, poor fit]

Question: With Cc1ccc(-c2cc(C(=O)N3CCc4ccccc4C3)no2)cc1 as the compound, how does the Potency read?
Answer: inconclusive: 11.6 µM [activator, partial curve, poor fit]

Question: With O=c1[nH]nc(Cc2ccc(Cl)cc2Cl)c2ccccc12 as the compound, how does the Potency read?
Answer: inconclusive: 17.8 µM [falling, single point]

Question: Which Potency does the source give for CCOc1cc(/C=C2\N=C(SC(C)C(N)=O)N(c3ccc(OC(F)F)cc3)C2=O)ccc1O (configuration not stated) here?
Answer: inconclusive: 20.6 µM [falling, partial curve, poor fit]

Question: For O=[N+]([O-])c1ccc(NC(=S)NCCc2ccccc2)cc1, which Potency is on record?
Answer: inconclusive: 18.4 µM [falling, single point]

Question: For COc1ccc(C)cc1NS(=O)(=O)c1ccc2oc(=O)c3ncn(C)c3c2c1, which Potency is on record?
Answer: inconclusive: 25.9 µM [activator, single point]

Question: Which Potency does the source give for COc1cccc(-c2nc(CS(=O)(=O)CC(=O)Nc3ccc(F)cc3F)c(C)o2)c1 here?
Answer: inconclusive: 5.17 µM [falling, partial curve, poor fit]

Question: For O=C(NCCSCc1ccccc1)C1CCN(S(=O)(=O)Cc2ccccc2)CC1, which Potency is on record?
Answer: inconclusive: 20.6 µM [activator, single point]

Question: Which Potency does the source give for COc1ccc(C(=O)Nc2nc(-c3ccccn3)cs2)cc1S(=O)(=O)N1CCOCC1 here?
Answer: active: 16.4 µM

Question: Which Potency does the source give for COc1cccc(NC(=O)C2=COCCO2)c1 here?
Answer: inconclusive: 3.66 µM [activator, partial curve, poor fit]

Question: For Cc1ccc(C)c(OCCC(=O)Nc2cccc(S(=O)(=O)NC3=NCCCCC3)c2)c1, which Potency is on record?
Answer: inconclusive: 7.31 µM [falling, partial curve, poor fit]

Question: Which Potency does the source give for COc1ccccc1-c1ccc(SCc2ccccc2F)nn1 here?
Answer: inconclusive: 13 µM [activator, partial curve, poor fit]

Question: Which Potency does the source give for CCOC(=O)c1cc2n(n1)C(C(F)(F)F)CC(C)N2 (configuration not stated) here?
Answer: inconclusive: 25.9 µM [activator, single point]

Question: For CN1CCN(NC(=O)c2ccc(S(=O)(=O)N3CC4(C)CC3CC(C)(C)C4)cc2)CC1 (configuration not stated), which “activity change, negative = inhibition” value is on record?
Answer: inactive: -16.1%

Question: Which Potency does the source give for CC(C)Cn1c(N2CCN(C(=O)/C=C/c3ccccc3)CC2)nc2ccccc21 here?
Answer: inconclusive: 29.1 µM [activator, single point]

Question: For CCOC(=O)c1sc(N)c(C(=O)OC)c1C, which Potency is on record?
Answer: inconclusive: 5.17 µM [activator, partial curve, poor fit]

Question: For O=C(NNC(=O)c1cc(-c2ccc(Cl)c(Cl)c2)nc2ccccc12)Nc1ccccc1, which Potency is on record?
Answer: inconclusive: 29.1 µM [falling, single point]

Question: Which “activity change, negative = inhibition” value does the source give for O=C(c1ccc([N+](=O)[O-])o1)N1CCc2ccccc21 here?
Answer: inactive: 0.913%

Question: With CCOC(=O)c1sc(NC(=O)c2ccc(CC)s2)nc1C as the compound, how does the Potency read?
Answer: inconclusive: 0.259 µM [activator, full curve]

Question: With O=C(N/N=C/c1ccccn1)c1cccc(S(=O)(=O)Nc2ccccc2Cl)c1 as the compound, how does the Potency read?
Answer: inconclusive: 18.4 µM [falling, partial curve, poor fit]

Question: Which Potency does the source give for Cc1ccc(C(C)(C)C)cc1S(=O)(=O)Nc1cccc(C(=O)N2CCN(c3ccccn3)CC2)c1 here?
Answer: inconclusive: 16.4 µM [falling, single point]

Question: With O=C(NNc1nc(=O)c2cccnc2s1)c1ccccc1O as the compound, how does the “activity change, negative = inhibition” value read?
Answer: inactive: -17.5%

Question: For c1ccc(-n2nnc(-c3cccnc3)n2)cc1, which Potency is on record?
Answer: inconclusive: 23.1 µM [activator, partial curve]

Question: With CCCc1nccn1S(=O)(=O)c1cc(OC)ccc1OC as the compound, how does the Potency read?
Answer: inconclusive: 0.092 µM [falling, partial curve, poor fit]

Question: For CN1CCN(C(=O)c2ccc3ccccc3c2)CC1, which Potency is on record?
Answer: inconclusive: 23.1 µM [activator, partial curve, poor fit]

Question: Which Potency does the source give for C=CCN1C(=O)C(CC(=O)Nc2ccccc2)S/C1=N/c1nccs1 (configuration not stated) here?
Answer: inconclusive: 32.6 µM [activator, single point]

Question: For CC(=O)c1ccc2cccc3c2c1N=CN3C, which Potency is on record?
Answer: inconclusive: 20.6 µM [falling, single point]

Question: Which Potency does the source give for FC(F)(F)c1nc2ccccc2c2nc3ccccc3n12 here?
Answer: inconclusive: 0.82 µM [activator, partial curve, poor fit]

Question: Which “activity change, negative = inhibition” value does the source give for CCOc1ccc(C(=O)NC(C(=O)N2CCC2)C(C)C)cc1 (configuration not stated) here?
Answer: inactive: 14.2%

Question: With COC(=O)c1ccccc1NC(=O)COc1ccc(S(=O)(=O)N2CCCC2)cc1C as the compound, how does the Potency read?
Answer: inconclusive: 10.3 µM [falling, partial curve, poor fit]

Question: Which Potency does the source give for COc1ccc(Cl)cc1-c1nc(-c2ccncc2)no1 here?
Answer: inconclusive: 20.6 µM [activator, partial curve]

Question: For O=C1NCCCC1C(=O)N1CCN(C(c2ccccc2)c2ccccc2)CC1 (configuration not stated), which Potency is on record?
Answer: inconclusive: 29.1 µM [falling, single point]

Question: Which Potency does the source give for CC1Cc2ccccc2N1CC(=O)NC(c1ccccc1)c1ccccc1 (configuration not stated) here?
Answer: inconclusive: 25.9 µM [falling, single point]

Question: For COc1ccc(OC)c(CNc2ncnc3onc(C)c23)c1, which “activity change, negative = inhibition” value is on record?
Answer: inactive: -25.7%

Question: With Cc1cccc(CCNC(=O)CCc2c(C)nc3c(c(C)nn3-c3ccccc3)c2C)c1 as the compound, how does the Potency read?
Answer: active: 23.1 µM

Question: Which Potency does the source give for CCC(C)NC(=O)Cn1c(COc2ccc(Cl)cc2Cl)nc2ccccc21 (configuration not stated) here?
Answer: inconclusive: 5.17 µM [activator, partial curve]

Question: Which “activity change, negative = inhibition” value does the source give for COCC(=O)Nc1nc2ccccc2s1 here?
Answer: inactive: 14.2%

Question: For CCC1CCCCN1S(=O)(=O)c1ccc(C(=O)Nc2nnc(-c3cccs3)o2)cc1 (configuration not stated), which Potency is on record?
Answer: active: 5.01 µM

Question: For CN1C(=O)c2ccccc2Sc2ccc(NC(=O)N3CCN(c4cccc(Cl)c4)CC3)cc21, which Potency is on record?
Answer: inconclusive: 7.31 µM [falling, full curve, poor fit]

Question: Which Potency does the source give for Cc1c(Cl)cccc1NC(=S)N1CCN(Cc2ccc3c(c2)OCO3)CC1 here?
Answer: inconclusive: 25.9 µM [falling, single point]

Question: Which Potency does the source give for Clc1ccc(CNc2ncnc3onc(-c4ccc(Cl)cc4)c23)cc1 here?
Answer: inconclusive: 29.1 µM [falling, single point]

Question: Which Potency does the source give for Cc1c(CN2CCCC(C(=O)Nc3cccc(-n4cccn4)c3)C2)cnn1C (configuration not stated) here?
Answer: inconclusive: 23.1 µM [falling, single point]

Question: For Cc1[nH]c2ccc(C(=O)N3CCC(C(N)=O)CC3)cc2c1C, which Potency is on record?
Answer: inconclusive: 11.6 µM [activator, partial curve]

Question: With NS(=O)(=O)c1ccc(Sc2ccc3ccccc3c2)nc1 as the compound, how does the Potency read?
Answer: inconclusive: 14.6 µM [falling, partial curve, poor fit]

Question: Which “activity change, negative = inhibition” value does the source give for O=C(NC1CCCCC1)c1ccccc1NC(=O)C1CC1 here?
Answer: inactive: 9.79%

Question: For Nc1ccc(-c2nc3ccc(N)cc3s2)cc1, which Potency is on record?
Answer: inconclusive: 32.6 µM [falling, single point]

Question: With CCc1c(C)nc2ncnn2c1NCc1cccs1 as the compound, how does the Potency read?
Answer: inconclusive: 18.4 µM [falling, single point]

Question: Which Potency does the source give for Cc1ccc(N(CC(=O)N2CCN(c3cccc(C)c3C)CC2)S(=O)(=O)c2c(C)nn(C)c2C)cc1 here?
Answer: inconclusive: 29.1 µM [falling, single point]

Question: With CCN(c1cc(C)cc(C)c1)S(=O)(=O)c1nnc(NC(=O)c2ccccc2C)s1 as the compound, how does the Potency read?
Answer: inconclusive: 16.4 µM [falling, partial curve, poor fit]

Question: Which Potency does the source give for COc1ccc(NC(=O)COc2ccccc2Cc2ccccc2)cc1S(N)(=O)=O here?
Answer: active: 13 µM

Question: For CCn1c(C)nc2cc(C(=O)OC(C(F)(F)C(F)F)C(F)(F)C(F)F)ccc21, which Potency is on record?
Answer: inconclusive: 23.1 µM [activator, single point]

Question: Which Potency does the source give for Cc1cc(C)c(S(=O)(=O)N2CCOC2CNC(=O)C(=O)NCCc2c[nH]c3ccccc23)c(C)c1 (configuration not stated) here?
Answer: inconclusive: 13 µM [falling, partial curve, poor fit]

Question: With CCOc1ccc(NC(=O)CSc2cn(CC(=O)N3CCOCC3)c3ccccc23)cc1 as the compound, how does the “activity change, negative = inhibition” value read?
Answer: inactive: 21.6%

Question: With O=C(CN1CCN(Cc2ccccc2)CC1)N1CCCc2c1c(=O)oc1ccc(O)cc21 as the compound, how does the “activity change, negative = inhibition” value read?
Answer: inactive: 2.74%

Question: With Brc1c(CSc2nc3ccccc3o2)nc2ncccn12 as the compound, how does the “activity change, negative = inhibition” value read?
Answer: inactive: 24.8%

Question: With CCC(Cc1ccccc1)NC(=O)c1cccc(Nc2nc3ccccc3nc2-n2nc(C)cc2C)c1 (configuration not stated) as the compound, how does the “activity change, negative = inhibition” value read?
Answer: inactive: 10.8%

Question: Which Potency does the source give for Cn1cc(-c2nc3ccccc3[nH]2)c2ccccc21 here?
Answer: inconclusive: 15.8 µM [activator, single point]

Question: For Cc1cc(=O)n(C)c(=O)n1CCCCCCN1CCCC1, which Potency is on record?
Answer: inconclusive: 3.66 µM [falling, single point]

Question: With Cc1ccc(/C=N/NC(=S)Nc2cccc(S(=O)(=O)N(C)C)c2)o1 as the compound, how does the Potency read?
Answer: inconclusive: 20.6 µM [falling, partial curve, poor fit]

Question: Which “activity change, negative = inhibition” value does the source give for Cc1ccccc1C(=O)NCC(C)NC(=O)c1ccccc1C (configuration not stated) here?
Answer: inactive: 0.939%

Question: Which Potency does the source give for CC(C)c1ccc2[nH]c3nc(SCC(=O)N4CCOCC4)nnc3c2c1 here?
Answer: inconclusive: 29.1 µM [activator, single point]
